Laboratory results from PMC6904361, “Vitamin D Receptor Inhibits NLRP3 Activation by Impeding Its BRCC3-Mediated Deubiquitination” (Frontiers in Immunology, 2019).
These are yes or no findings as the source states them, for the method shown. Binding seen in cells or lysates may run through a third protein. Here binding means that the protein was enriched with, or labelled near, the bait; the list need not be complete.

Protein sequences, listed by entry. Tags and fused reporters are not part of them.
UniProt Q96P20: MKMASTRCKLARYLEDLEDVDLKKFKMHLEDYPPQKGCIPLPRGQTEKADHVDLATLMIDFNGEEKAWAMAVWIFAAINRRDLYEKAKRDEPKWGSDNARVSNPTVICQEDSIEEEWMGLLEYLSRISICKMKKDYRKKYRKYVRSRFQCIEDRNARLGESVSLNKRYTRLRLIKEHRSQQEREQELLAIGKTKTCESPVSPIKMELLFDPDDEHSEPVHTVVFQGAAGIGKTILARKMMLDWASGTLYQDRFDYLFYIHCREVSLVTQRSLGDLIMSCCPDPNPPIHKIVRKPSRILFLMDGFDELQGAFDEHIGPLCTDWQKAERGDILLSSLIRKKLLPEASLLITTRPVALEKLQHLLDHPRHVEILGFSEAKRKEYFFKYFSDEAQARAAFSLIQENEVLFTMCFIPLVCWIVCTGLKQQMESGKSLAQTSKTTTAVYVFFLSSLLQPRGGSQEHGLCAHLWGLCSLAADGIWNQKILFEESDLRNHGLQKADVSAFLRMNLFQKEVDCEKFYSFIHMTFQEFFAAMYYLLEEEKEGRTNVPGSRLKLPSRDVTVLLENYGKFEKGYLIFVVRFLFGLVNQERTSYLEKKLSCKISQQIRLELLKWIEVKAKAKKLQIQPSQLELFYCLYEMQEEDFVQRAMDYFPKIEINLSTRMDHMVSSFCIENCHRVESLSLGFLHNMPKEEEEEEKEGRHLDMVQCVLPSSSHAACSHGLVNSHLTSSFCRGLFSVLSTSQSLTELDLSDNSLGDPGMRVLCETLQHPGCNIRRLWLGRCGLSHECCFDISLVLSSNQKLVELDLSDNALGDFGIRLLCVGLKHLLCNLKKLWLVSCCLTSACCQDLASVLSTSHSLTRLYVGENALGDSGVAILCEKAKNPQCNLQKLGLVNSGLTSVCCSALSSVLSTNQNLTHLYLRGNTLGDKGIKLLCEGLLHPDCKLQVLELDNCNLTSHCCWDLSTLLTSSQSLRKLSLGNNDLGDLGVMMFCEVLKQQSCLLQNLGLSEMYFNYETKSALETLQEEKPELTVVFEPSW

Molecular target: Flag-NLRP3 (UniProt Q96P20)
Assay: affinity purification with mass spectrometry; Flag-NLRP3 or empty Flag construct in HEK293T for 24 h; anti-Flag antibody and Protein A/G-Agarose; SDS-PAGE, in-gel trypsin digestion, LC-MS/MS (LTQ Orbitrap Velos)

B1: GST-human VDR (natural protein, UniProt P11473 1-427, looked up)
chain: MEAMAASTSLPDPGDFDRNVPRICGVCGDRATGFHFNAMTCEGCKGFFRRSMKRKALFTCPFNGDCRITKDNRRHCQACRLKRCVDIGMMKEFILTDEEVQRKREMILKRKEEEALKDSLRPKLSEEQQRIIAILLDAHHKTYDPTYSDFCQFRPPVRVNDGGGSHPSRPNSRHTPSFSGDSSSSCSDHCITSSDMMDSSSFSNLDLSEEDSDDPSVTLELSQLSMLPHLADLVSYSIQKVIGFAKMIPGFRDLTSEDQIVLLKSSAIEVIMLRSNESFTMDDMSWTCGNQDYKYRVSDVTKAGHSLELIEPLIKFQVGLKKLNLHEEEHVLLMAICIVSPDRPGVQDAALIEAIQDRLSNTLQTYIRCRHPPPGSHLLYAKMIQKLADLRSLNEEHSKQYRCLSFQPECSMKLTPLVLEVFGNEIS
notes: human vitamin D receptor in pGEX-6P1; also called GST-VDR; pGEX6p-1-GST-VDR; source: E. coli BL21(DE3), IPTG-induced; called purified in the legend
binding: binds
